Data reported in the supplement of paper PMC12819154, “High-throughput peptide-centric local stability assay extends protein–ligand identification to membrane proteins, tissues and bacteria” (Nature Structural & Molecular Biology, 2025).
The list shows a part of the results. Small differences around the control level are noise.

Chains of the proteins cited; added tags and fusions are not shown. Lines headed by an entry give the natural chain unless they say otherwise; changes in a name come on top.
UniProt P28908: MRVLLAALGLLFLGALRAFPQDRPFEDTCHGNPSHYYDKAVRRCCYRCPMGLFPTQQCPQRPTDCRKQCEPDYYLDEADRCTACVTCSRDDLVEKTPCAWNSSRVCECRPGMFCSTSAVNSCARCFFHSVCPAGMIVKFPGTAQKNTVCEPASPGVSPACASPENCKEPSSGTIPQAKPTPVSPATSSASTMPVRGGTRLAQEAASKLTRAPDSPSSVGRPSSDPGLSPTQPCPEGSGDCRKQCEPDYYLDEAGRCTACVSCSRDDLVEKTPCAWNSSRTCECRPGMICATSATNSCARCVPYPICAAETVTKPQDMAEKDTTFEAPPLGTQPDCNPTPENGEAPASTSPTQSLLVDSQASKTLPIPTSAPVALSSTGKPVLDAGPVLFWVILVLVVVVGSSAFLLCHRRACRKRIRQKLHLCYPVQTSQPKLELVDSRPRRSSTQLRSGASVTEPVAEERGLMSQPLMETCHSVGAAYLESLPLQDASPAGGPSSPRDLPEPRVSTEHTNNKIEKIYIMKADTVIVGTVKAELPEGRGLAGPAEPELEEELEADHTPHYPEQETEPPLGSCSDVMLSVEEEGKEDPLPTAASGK
UniProt P35716: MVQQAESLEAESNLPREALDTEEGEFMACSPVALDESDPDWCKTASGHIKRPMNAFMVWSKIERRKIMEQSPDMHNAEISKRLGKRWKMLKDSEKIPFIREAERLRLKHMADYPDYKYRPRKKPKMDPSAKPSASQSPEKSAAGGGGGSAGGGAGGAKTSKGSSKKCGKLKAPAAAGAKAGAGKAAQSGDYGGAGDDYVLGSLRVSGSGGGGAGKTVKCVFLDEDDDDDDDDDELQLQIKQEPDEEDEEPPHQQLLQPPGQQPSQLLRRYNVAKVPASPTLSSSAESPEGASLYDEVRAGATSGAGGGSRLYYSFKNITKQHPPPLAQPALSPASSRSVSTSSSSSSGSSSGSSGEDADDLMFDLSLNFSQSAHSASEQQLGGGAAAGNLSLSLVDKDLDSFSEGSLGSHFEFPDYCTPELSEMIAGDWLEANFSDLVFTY
UniProt P36873, whole entry, looked up: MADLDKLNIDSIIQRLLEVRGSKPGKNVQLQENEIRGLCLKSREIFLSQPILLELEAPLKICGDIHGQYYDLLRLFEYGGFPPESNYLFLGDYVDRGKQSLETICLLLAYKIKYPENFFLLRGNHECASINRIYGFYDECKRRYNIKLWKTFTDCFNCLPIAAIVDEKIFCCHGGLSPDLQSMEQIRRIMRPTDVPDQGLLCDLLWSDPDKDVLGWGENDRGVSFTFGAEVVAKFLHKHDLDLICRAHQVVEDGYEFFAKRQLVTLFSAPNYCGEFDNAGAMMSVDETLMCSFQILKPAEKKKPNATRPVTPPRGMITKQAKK
UniProt P36575, whole entry: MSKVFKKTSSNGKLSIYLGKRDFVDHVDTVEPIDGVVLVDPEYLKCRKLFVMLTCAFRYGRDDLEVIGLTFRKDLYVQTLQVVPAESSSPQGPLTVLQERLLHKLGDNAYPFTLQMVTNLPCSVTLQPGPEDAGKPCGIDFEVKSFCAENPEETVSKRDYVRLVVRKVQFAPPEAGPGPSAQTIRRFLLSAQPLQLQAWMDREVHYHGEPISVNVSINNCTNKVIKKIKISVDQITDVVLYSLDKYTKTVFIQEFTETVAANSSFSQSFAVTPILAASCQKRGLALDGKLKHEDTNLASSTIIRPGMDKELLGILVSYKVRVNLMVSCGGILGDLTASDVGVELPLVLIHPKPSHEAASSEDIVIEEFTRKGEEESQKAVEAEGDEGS
UniProt P30154, whole entry: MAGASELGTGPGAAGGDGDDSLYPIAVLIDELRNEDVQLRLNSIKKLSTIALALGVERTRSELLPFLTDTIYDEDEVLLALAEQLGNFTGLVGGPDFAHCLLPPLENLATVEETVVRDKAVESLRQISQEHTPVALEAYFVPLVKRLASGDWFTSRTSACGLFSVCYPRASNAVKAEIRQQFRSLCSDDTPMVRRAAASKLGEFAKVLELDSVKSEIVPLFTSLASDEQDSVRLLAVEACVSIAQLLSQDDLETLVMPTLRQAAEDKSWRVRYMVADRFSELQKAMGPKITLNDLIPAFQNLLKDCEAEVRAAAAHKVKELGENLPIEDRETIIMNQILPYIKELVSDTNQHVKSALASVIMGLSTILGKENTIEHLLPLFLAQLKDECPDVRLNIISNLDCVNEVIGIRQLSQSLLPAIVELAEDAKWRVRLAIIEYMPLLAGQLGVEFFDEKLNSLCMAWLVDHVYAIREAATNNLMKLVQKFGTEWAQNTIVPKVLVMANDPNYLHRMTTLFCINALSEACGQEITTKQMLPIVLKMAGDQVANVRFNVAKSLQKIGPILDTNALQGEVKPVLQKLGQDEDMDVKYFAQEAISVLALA
UniProt P34932: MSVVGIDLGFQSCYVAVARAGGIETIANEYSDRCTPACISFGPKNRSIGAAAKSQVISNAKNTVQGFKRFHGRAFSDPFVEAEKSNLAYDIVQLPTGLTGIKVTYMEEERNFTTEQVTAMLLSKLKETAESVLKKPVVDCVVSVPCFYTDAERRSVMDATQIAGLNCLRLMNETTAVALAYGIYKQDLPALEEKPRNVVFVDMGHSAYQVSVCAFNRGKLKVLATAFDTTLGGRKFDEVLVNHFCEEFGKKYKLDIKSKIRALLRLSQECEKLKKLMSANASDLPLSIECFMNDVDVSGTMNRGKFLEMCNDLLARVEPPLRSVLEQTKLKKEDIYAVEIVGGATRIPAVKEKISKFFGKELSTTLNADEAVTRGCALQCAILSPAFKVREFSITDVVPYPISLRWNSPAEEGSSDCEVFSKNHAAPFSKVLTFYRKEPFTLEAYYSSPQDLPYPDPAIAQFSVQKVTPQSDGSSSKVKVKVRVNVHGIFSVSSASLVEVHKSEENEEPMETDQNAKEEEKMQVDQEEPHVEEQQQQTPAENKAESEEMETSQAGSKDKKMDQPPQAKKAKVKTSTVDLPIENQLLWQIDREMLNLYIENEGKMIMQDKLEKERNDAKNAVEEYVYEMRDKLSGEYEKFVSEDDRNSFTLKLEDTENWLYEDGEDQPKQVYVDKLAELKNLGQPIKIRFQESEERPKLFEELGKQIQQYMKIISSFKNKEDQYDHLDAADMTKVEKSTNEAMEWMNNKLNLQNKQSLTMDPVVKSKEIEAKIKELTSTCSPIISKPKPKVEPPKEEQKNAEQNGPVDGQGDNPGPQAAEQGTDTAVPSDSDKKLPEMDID
UniProt P31323, whole entry: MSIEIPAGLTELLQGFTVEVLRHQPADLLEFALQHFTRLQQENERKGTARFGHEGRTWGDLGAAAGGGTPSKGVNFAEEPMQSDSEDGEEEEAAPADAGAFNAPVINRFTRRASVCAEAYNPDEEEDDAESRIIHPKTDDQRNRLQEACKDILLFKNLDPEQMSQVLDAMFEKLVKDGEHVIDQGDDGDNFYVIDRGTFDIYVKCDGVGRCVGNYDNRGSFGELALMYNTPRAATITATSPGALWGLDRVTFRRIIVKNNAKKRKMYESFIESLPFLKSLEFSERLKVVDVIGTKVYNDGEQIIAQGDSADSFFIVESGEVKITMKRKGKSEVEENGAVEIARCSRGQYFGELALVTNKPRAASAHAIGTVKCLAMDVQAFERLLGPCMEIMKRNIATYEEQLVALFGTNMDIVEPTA
UniProt P43246, whole entry: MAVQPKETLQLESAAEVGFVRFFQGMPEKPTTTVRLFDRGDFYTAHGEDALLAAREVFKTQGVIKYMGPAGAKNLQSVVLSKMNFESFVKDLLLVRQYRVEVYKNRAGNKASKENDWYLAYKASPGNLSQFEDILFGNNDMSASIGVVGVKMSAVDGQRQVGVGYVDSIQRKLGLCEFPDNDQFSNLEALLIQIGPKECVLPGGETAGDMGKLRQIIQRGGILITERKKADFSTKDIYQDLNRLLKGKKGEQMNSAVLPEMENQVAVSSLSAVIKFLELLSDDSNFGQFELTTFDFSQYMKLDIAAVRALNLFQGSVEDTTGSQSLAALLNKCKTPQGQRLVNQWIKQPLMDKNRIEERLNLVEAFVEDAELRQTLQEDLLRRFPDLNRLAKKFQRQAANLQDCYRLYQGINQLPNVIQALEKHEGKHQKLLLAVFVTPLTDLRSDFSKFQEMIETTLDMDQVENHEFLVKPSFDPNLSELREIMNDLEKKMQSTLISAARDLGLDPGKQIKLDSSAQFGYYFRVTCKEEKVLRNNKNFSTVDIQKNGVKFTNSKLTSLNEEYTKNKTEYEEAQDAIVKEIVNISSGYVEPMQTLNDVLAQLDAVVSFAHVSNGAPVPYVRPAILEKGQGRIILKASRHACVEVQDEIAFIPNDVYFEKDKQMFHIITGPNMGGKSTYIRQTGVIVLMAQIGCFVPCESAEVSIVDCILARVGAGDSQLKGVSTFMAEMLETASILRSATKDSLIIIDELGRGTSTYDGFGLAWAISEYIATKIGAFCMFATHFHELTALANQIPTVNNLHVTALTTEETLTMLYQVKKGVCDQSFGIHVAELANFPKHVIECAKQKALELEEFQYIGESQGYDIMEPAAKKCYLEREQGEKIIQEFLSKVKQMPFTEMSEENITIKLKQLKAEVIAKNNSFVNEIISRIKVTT
UniProt P43362: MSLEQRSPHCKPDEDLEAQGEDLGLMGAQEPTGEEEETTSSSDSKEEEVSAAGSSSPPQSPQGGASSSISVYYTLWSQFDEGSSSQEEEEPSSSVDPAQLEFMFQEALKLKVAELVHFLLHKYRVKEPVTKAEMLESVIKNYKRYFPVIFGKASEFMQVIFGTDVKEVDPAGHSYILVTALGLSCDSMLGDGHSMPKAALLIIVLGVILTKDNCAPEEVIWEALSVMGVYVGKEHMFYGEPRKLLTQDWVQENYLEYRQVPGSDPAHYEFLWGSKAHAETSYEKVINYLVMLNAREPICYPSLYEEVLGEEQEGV
UniProt P29374: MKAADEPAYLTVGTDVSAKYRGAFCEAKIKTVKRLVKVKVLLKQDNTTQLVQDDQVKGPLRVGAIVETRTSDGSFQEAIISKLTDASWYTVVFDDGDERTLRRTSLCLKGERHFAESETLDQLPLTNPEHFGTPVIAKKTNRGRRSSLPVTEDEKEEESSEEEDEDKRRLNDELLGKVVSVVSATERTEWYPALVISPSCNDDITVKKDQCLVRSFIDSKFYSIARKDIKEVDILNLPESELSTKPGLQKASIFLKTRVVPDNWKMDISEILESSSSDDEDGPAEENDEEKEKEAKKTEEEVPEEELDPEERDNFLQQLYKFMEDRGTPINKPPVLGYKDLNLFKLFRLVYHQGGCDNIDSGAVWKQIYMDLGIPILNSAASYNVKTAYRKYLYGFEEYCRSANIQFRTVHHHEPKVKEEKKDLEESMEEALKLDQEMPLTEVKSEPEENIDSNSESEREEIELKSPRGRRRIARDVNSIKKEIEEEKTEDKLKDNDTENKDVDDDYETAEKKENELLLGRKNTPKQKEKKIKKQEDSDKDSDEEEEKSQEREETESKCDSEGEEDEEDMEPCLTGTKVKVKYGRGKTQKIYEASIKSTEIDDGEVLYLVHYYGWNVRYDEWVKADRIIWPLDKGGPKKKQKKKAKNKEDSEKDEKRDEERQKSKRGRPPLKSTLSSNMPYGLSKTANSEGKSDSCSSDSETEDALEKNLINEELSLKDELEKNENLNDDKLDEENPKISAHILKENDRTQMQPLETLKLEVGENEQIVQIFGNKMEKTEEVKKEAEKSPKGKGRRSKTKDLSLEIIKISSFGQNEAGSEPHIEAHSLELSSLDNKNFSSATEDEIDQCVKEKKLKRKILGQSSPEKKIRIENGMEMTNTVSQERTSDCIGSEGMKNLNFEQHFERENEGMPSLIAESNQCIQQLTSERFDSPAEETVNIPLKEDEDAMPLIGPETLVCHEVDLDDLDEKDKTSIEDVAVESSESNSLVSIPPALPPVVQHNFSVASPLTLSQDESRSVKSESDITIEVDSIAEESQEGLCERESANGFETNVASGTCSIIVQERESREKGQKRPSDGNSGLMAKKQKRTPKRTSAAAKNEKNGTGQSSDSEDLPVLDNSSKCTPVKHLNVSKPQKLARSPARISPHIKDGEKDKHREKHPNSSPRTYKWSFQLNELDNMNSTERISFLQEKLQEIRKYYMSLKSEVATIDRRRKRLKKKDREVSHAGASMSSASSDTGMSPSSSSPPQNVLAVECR
UniProt P31942: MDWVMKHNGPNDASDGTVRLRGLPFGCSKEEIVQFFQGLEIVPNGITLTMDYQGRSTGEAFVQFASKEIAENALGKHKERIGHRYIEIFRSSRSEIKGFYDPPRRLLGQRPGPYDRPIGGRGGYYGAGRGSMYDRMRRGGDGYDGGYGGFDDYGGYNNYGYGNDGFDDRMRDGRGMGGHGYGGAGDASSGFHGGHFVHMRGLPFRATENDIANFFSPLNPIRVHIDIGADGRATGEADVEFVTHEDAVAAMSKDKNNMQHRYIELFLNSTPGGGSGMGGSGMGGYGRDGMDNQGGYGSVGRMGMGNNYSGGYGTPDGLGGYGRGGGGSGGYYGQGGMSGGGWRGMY

Compound: Cc1nc(Nc2ncc(C(=O)Nc3c(C)cccc3Cl)s2)cc(N2CCN(CCO)CC2)n1 [dasatinib]
Test: log2 fold change of tryptic peptide abundance, ligand vs vehicle (limited proteolysis) (log2 ratio); higher = more trypsin-susceptible (destabilized)
Settings: ligand concentration: 5 uM; sample: K562 cleared lysate

Target	log2 fold change
UniProt P42285 (peptide sequence: NSATEAAKPAKPDEK, peptide start residue: 709)	-0.449
GALNS (peptide sequence: NGFYTTNAHAR, peptide start residue: 95) (UniProt P34059)	-0.199
DCTD (peptide sequence: IVIDFDSINSRPSQK, peptide start residue: 162) (UniProt P32321)	0.141
PPP1R2 (peptide sequence: GNVDEELSKK, peptide start residue: 34) (UniProt P41236)	0.0418
PIK3CB (peptide sequence: CKYMDSK, peptide start residue: 776) (UniProt P42338)	0.719
TTK (peptide sequence: SECRDLVVPGSKPSGNDSCELR, peptide start residue: 304) (UniProt P33981)	0.366
TNFRSF8 (peptide sequence: SGASVTEPVAEER, peptide start residue: 449) (UniProt P28908)	0.163
CAP2 (peptide sequence: VPTISINK, peptide start residue: 405) (UniProt P40123)	-0.248
GTF2F1 (peptide sequence: TLTAEEAEEEWERR, peptide start residue: 154) (UniProt P35269)	0.0726
SOX11 (peptide sequence: APAAAGAK, peptide start residue: 172) (UniProt P35716)	-0.0188
PTPN9 (peptide sequence: SGHTQTDYINASFMDGYKQK, peptide start residue: 350) (UniProt P43378)	-0.553
PPP1CC (peptide sequence: KPNATRPVTPPR, peptide start residue: 303) (UniProt P36873)	0.196
UniProt P36575 (peptide sequence: YGRDDLEVIGLTFR, peptide start residue: 59)	0.209
PPP2R1B (peptide sequence: VKELGENLPIEDR, peptide start residue: 318) (UniProt P30154)	0.173
ARL3 (peptide sequence: ILLLGLDNAGK, peptide start residue: 20) (UniProt P36405)	0.0685
HSPA4 (peptide sequence: DKLSGEYEK, peptide start residue: 630) (UniProt P34932)	0.135
PRKAR2B (peptide sequence: LVKDGEHVIDQGDDGDNFYVIDR, peptide start residue: 174) (UniProt P31323)	0.161
ACADSB (peptide sequence: YAIGSLNEGR, peptide start residue: 285) (UniProt P45954)	-0.0666
MSH2 (peptide sequence: DKQMFHIITGPNMGGK, peptide start residue: 660) (UniProt P43246)	-0.506
MAGEA9 (peptide sequence: VAELVHFLLHK, peptide start residue: 112) (UniProt P43362)	-0.4
VHL (peptide sequence: SLVKPENYR, peptide start residue: 168) (UniProt P40337)	0.0894
ARID4A (peptide sequence: NLNFEQHFER, peptide start residue: 897) (UniProt P29374)	0.784
HNRNPH3 (peptide sequence: GLPFGCSK, peptide start residue: 117) (UniProt P31942)	-0.085
TAGLN2 (peptide sequence: TLMNLGGLAVAR, peptide start residue: 128) (UniProt P37802)	-0.14
TRIM23 (peptide sequence: ISEAHSELAK, peptide start residue: 487) (UniProt P36406)	0.107
GMPR (peptide sequence: LKLFYGMSSDTAMNK, peptide start residue: 263) (UniProt P36959)	-0.381
CASP2 (peptide sequence: EGYAPGTEFHR, peptide start residue: 418) (UniProt P42575)	-0.151
GPD2 (peptide sequence: LVGAIVYYDGQHNDAR, peptide start residue: 212) (UniProt P43304)	-0.509

Pulled one by one from the entries so far (2):
Target	log2 fold change
GALNS (peptide sequence: NGFYTTNAHAR, peptide start residue: 95) (UniProt P34059)	-0.199
UniProt P42285 (peptide sequence: NSATEAAKPAKPDEK, peptide start residue: 709)	-0.449
